{"sequences": {"note": "Protein sequences, listed by entry. Tags and fused reporters are not part of them. Lines headed by an entry give the natural chain unless they say otherwise; changes in a name come on top.", "UniProt Q9UNA4": "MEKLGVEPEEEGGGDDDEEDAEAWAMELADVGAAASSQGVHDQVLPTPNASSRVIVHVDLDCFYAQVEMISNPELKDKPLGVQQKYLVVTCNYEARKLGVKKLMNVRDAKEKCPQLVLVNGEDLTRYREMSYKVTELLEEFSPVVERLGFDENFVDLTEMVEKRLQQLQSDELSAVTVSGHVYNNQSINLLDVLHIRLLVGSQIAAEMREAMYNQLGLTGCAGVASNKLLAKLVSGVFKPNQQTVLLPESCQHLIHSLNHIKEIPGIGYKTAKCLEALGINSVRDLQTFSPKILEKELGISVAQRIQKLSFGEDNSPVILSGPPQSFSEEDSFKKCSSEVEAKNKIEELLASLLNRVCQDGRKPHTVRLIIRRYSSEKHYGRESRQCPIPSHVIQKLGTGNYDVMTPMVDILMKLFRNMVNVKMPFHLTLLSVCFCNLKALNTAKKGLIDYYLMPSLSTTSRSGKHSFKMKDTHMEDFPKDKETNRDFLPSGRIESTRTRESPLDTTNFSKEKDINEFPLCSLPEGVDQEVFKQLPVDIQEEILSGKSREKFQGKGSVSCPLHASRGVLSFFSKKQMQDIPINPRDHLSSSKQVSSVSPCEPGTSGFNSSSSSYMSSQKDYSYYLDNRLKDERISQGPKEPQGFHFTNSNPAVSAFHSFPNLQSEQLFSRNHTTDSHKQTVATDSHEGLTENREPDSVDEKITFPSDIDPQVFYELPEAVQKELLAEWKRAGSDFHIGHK"}, "source": "PubChem BioAssay AID588590", "about": "(National Center for Advancing Translational Sciences (NCATS), 2011)", "note": "Screen size: about 390,000 compounds; about 4,000 (1%) were called active. The shares of active, inactive and inconclusive entries below differ from those in the screen. Calls follow the shape of the dose curve; as a rule, active = well fitted inhibition curve with a large enough effect; inconclusive = small, poorly fitted or top-dose-only effect, or another doubt; inactive = no such curve, though single readings can be large or run the other way. Potencies of inconclusive entries are doubtful fits and often do not repeat. Potency is read from the fitted curve at half-maximal effect."}
{"molecular_target": "DNA polymerase iota (Homo sapiens) (UniProt Q9UNA4)", "test": "qHTS for Inhibitors of Polymerase Iota", "conditions": "Pol iota fluorescent replication assay, 10 min; series mostly up to 115 µM", "summary_of_the_method": "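Fluorescent replication assay read twice, at 0 min and 10 min after adding 50 nM (final) substrate. Enzyme (10 nM) and compounds were first incubated 15 min at room temperature; enzyme-free buffer wells were negative controls.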"}
{"compound": "COC(=O)c1cc2occc2n1CC(=O)Nc1ccc(N(C)C)cc1", "Potency": "inactive"}
{"compound": "CN(C(=O)C(Cl)Cl)C1CC2C=CC1C2", "note": "(centres undefined)", "Potency": "inactive"}
{"compound": "COc1cc(C(=O)NCCc2cc3c(OC)ccc(OC)c3[nH]c2=O)cc(OC)c1OC", "Potency": "inconclusive: 11.2 µM [inhibitor, partial curve, poor fit]"}
{"compound": "N#Cc1ccc(CSc2nnc(Cc3cccs3)n2Cc2ccco2)cc1", "Potency": "active: 17.8 µM"}
{"compound": "C=CC[C@@H](CC(=O)N[C@@H](CO)Cc1ccccc1)C(=O)N[C@H](COC(=O)[C@@H](CC=C)Cc1ccc(F)cc1)C(C)(C)C", "Potency": "inconclusive: 1.58 µM [inhibitor, full curve, poor fit]"}
{"compound": "COc1cc(/C=N\\NC(=O)c2sc(N)nc2C)cc(OC)c1OC", "Potency": "active: 7.08 µM"}
{"compound": "COc1ccc(NC(=O)/C(C#N)=C\\c2ccc(-c3cc(C(=O)O)ccc3C)o2)cc1", "Potency": "inconclusive: 31.6 µM [inhibitor, partial curve]"}
{"compound": "N=C1C(c2nc3ccccc3s2)=C(O)CN1NC(=O)c1ccc([N+](=O)[O-])cc1", "Potency": "inconclusive: 0.708 µM [inhibitor, full curve, poor fit]"}
{"compound": "O=c1c2ccccc2nc(/C=C/c2cccnc2)n1CCc1ccccc1", "Potency": "active: 7.94 µM"}
{"compound": "CCN(C(=O)c1cn(CC)c(=O)c2cc(OC)c(OC)cc12)c1ccccc1F", "Potency": "inconclusive: 89.1 µM [inhibitor, single point]"}
{"compound": "CCOC(=O)C1=C(O)/C(=C/c2cn(CC(=O)NCC3CCCO3)c3ccccc23)SC1=Nc1ccc(C)cc1", "note": "(centres undefined)", "Potency": "inconclusive: 63.1 µM [inhibitor, partial curve, poor fit]"}
{"compound": "Cn1ccsc1=NC(=O)c1cccc(OC(F)F)c1", "Potency": "inconclusive: 89.1 µM [inhibitor, partial curve, poor fit]"}
{"compound": "CCOc1ccc(N(CC(=O)NC2CCCCC2)C(=O)CCCC(=O)Nc2ccccn2)cc1", "Potency": "inconclusive: 100 µM [inhibitor, single point]"}
{"compound": "Cc1ccc(S(=O)(=O)N2CCN(C(=O)c3ccc4nc[nH]c4c3)CC2)cc1", "Potency": "inconclusive: 14.1 µM [inhibitor, partial curve]"}
{"compound": "COc1ccccc1-c1nc(-c2ccc(C(=O)O)cc2)no1", "Potency": "inconclusive: 89.1 µM [inhibitor, partial curve, poor fit]"}
{"compound": "Cc1ccc(S(=O)(=O)N2[C@@H](c3ccc(Cl)cc3)C(C(=O)O)=CC[C@H]2c2ccc(Cl)c(Cl)c2)cc1", "Potency": "inconclusive: 50.1 µM [inhibitor, partial curve, poor fit]"}
{"compound": "Cc1cc(C(=O)CSc2nnc(-c3cccnc3)n2-c2ccccc2F)c(C)n1C", "Potency": "inconclusive: 28.2 µM [inhibitor, full curve, poor fit]"}
{"compound": "Cc1c(C#N)c(O)[nH]c(=O)c1N=Nc1ccc(S(N)(=O)=O)cc1", "Potency": "inconclusive: 15.8 µM [inhibitor, partial curve, poor fit]"}
{"compound": "CCN(CC)c1ccc(NC(=O)c2cccn2-c2nnc(N3CCCCC3)s2)c(C)c1", "Potency": "inconclusive: 25.1 µM [inhibitor, single point]"}
{"compound": "O=C(O)CNC(=O)/C=C/c1ccc(Cl)cc1Cl", "Potency": "inconclusive: 35.5 µM [inhibitor, partial curve, poor fit]"}
{"compound": "N#CC(C#N)=C(N)/C(C#N)=C/c1ccc(O)cc1", "Potency": "inactive"}
{"compound": "C[C@H]1CC[C@H]2C(=O)N[C@H](Cc3ccccc3)C(=O)N2[C@@H]1c1ccccc1", "Potency": "inconclusive: 8.91 µM [inhibitor, partial curve, poor fit]"}
{"compound": "COc1cccc(NC(=O)CCC(=O)N2Cc3ccccc3Oc3ncccc32)c1", "Potency": "inactive"}
{"compound": "CCOCCCNc1nc(C(F)(F)F)nc2c1nnn2Cc1ccccc1Cl", "Potency": "inconclusive: 70.8 µM [inhibitor, single point]"}
{"compound": "Cc1ccc(N2C(=O)[C@@H]3[C@H](C2=O)C2CCCN2[C@@H]3C(=O)c2ccccc2)cc1", "note": "(some centres undefined)", "Potency": "inconclusive: 39.8 µM [inhibitor, single point]"}
{"compound": "Cc1c(Cl)cccc1NC(=S)N1CCC(N(C)CC2CCCO2)CC1", "note": "(centres undefined)", "Potency": "inactive"}
{"compound": "Cc1cccc(Nc2nnc(-c3ccc(C)c(S(=O)(=O)N4CCCCC4)c3)c3ccccc23)c1", "Potency": "inconclusive: 89.1 µM [inhibitor, single point]"}
{"compound": "CCCC(=O)NC1=C(Cl)C(=O)c2ccccc2C1=O", "Potency": "active: 6.31 µM"}
{"compound": "CCOc1ccc(N2CC(C(=O)Nc3c(C)n(C)n(-c4ccccc4)c3=O)CC2=O)cc1", "note": "(centres undefined)", "Potency": "inactive"}
{"compound": "Cc1ccc(C(=O)/C=C/c2ccc(F)cc2)o1", "Potency": "inconclusive: 89.1 µM [inhibitor, partial curve, poor fit]"}
{"compound": "Cc1cc(C)c(NC(=O)CSc2nnc(CN3CCOCC3)n2C)c(C)c1", "Potency": "inconclusive: 89.1 µM [inhibitor, partial curve, poor fit]"}
{"compound": "Cc1ccccc1Cn1cc(S(=O)(=O)CC(=O)Nc2nccs2)c2ccccc21", "Potency": "inactive"}
{"compound": "COc1ccc(C(=O)NNC2CC(=O)N(Cc3ccc(Cl)cc3)C2=O)cc1OC", "note": "(centres undefined)", "Potency": "inconclusive: 100 µM [inhibitor, partial curve, poor fit]"}
{"compound": "CCOc1ccccc1/C=c1\\sc2nc(-c3ccco3)nn2c1=O", "Potency": "inconclusive: 14.1 µM [inhibitor, full curve, poor fit]"}
{"compound": "COc1ccc(OCC(=O)c2c(O)c3ccccc3oc2=O)cc1", "Potency": "inconclusive: 39.8 µM [inhibitor, partial curve]"}
{"compound": "COc1ccc(/C=C2\\SC(=O)N(CC(=O)Nc3cccc(C)c3)C2=O)cc1O", "Potency": "inconclusive: 31.6 µM [inhibitor, partial curve, poor fit]"}
{"compound": "CCOc1ccccc1NC(=O)c1c(NC(=O)COc2ccccc2)sc2c1CCCC2", "Potency": "inconclusive: 100 µM [inhibitor, single point]"}
{"compound": "CC(C)C1C(C#N)=C(N)SC(N)=C1C#N", "Potency": "inactive"}
{"compound": "COC/C=C/C1=CC2=CC(=O)C(C)(OC(=O)c3cnc4ccccc4n3)C(=O)C2=CN1CCCCO", "note": "(centres undefined)", "Potency": "inconclusive: 22.4 µM [inhibitor, partial curve]"}
{"compound": "Cc1ccc(-n2c3c(cc(C(=O)Nc4ccccc4C(N)=O)c2=O)C(=O)CC(C)(C)C3)cc1", "Potency": "inactive"}
{"compound": "O=S(=O)(c1ccc(N2CC=C(c3ccccc3)CC2)nc1)N1CCCC1", "Potency": "inconclusive: 28.2 µM [inhibitor, partial curve, poor fit]"}
{"compound": "Cn1nnc2cc(C(=O)NC(C)(C)C)ccc21", "Potency": "inconclusive: 35.5 µM [inhibitor, single point]"}
{"compound": "COc1ccc(NC(=O)/C(C#N)=C\\c2ccc(-c3cccc(C(=O)O)c3C)o2)cc1", "Potency": "inconclusive: 22.4 µM [inhibitor, full curve, poor fit]"}
{"compound": "CCOC(=O)C1=C(C)N=C2SC(C)C(=O)N2C1c1ccc(OC(C)=O)c(OC)c1", "note": "(centres undefined)", "Potency": "inconclusive: 31.6 µM [inhibitor, single point]"}
{"compound": "COc1ccc2nc(SCC(=O)NCc3ccccc3)[nH]c2c1", "Potency": "inactive"}
{"compound": "O=C(Cn1cnc2c(nnn2Cc2ccc(F)cc2)c1=O)NCc1ccco1", "Potency": "inconclusive: 50.1 µM [inhibitor, partial curve, poor fit]"}
{"compound": "CCOC(=O)c1cnc2cc(-c3ccc(OCC)cc3)nn2c1-c1ccccc1", "Potency": "inactive"}
{"compound": "CCOC(=O)c1c(/N=C/N(C)C)sc(C(=O)OC)c1C", "Potency": "inconclusive: 39.8 µM [inhibitor, single point]"}
{"compound": "CCOP(=O)(Cc1ccc(C(C)(C)CC(C)=O)o1)OCC", "Potency": "inconclusive: 6.31 µM [inhibitor, partial curve]"}
{"compound": "Cc1ccc(NCc2cccn2-c2nnc(N3CCC(C(=O)NCCc4ccc(Cl)cc4)CC3)s2)cc1", "Potency": "inactive"}
{"compound": "Cn1c(=O)c2c(ncn2CC(=O)N2CCN(c3ccc(F)cc3)CC2)n(C)c1=O", "Potency": "inconclusive: 7.08 µM [inhibitor, single point]"}
{"compound": "Cc1cc(OC(C)C(=O)NCC2CCC(C(=O)O)CC2)c2c(C)c(Cc3ccccc3)c(=O)oc2c1", "note": "(centres undefined)", "Potency": "active: 79.4 µM"}
{"compound": "COc1ccc(S(=O)(=O)/C(C#N)=C/Nc2ccc(NC(C)=O)cc2)cc1", "Potency": "inactive"}
{"compound": "N#C/C(=C\\c1ccc(OCc2ccccc2)cc1)C(=O)Nc1ccc(C(=O)O)cc1", "Potency": "inconclusive: 39.8 µM [inhibitor, single point]"}
{"compound": "Cc1onc(C(=O)Nc2sc3c(c2C(N)=O)CCCC3)c1[N+](=O)[O-]", "Potency": "inconclusive: 35.5 µM [inhibitor, partial curve, poor fit]"}
{"compound": "CCn1cc(/C=C(\\NC(=O)c2ccc(OC)cc2)C(=O)NCCCn2ccnc2)c2ccccc21", "Potency": "inconclusive: 100 µM [inhibitor, single point]"}
{"compound": "COc1ccccc1CNC(=O)C1CCN(c2nc3ccc(Cl)cc3[nH]2)CC1", "Potency": "inactive"}
{"compound": "O=C/C=C/c1coc2ccc3ccccc3c2c1=O", "Potency": "inconclusive: 2.51 µM [inhibitor, full curve, poor fit]"}
{"compound": "CCOC(=O)C1(Cc2cccc(OC)c2)CCN(Cc2cccc3cnccc23)CC1", "Potency": "inconclusive: 39.8 µM [inhibitor, single point]"}
{"compound": "NC(=S)Nc1nccc(-c2cccs2)n1", "Potency": "inconclusive: 89.1 µM [inhibitor, partial curve, poor fit]"}
{"compound": "O=C(CCl)c1ccc2c(c1)CCN2C(=O)C1CCCCC1", "Potency": "inconclusive: 22.4 µM [inhibitor, partial curve, poor fit]"}
{"compound": "CCN1CCN(c2ncnc3c2cnn3-c2ccc(C)cc2C)CC1", "Potency": "inconclusive: 79.4 µM [inhibitor, single point]"}
{"compound": "COc1ccc(C(=O)Nc2c(N)nc(SCC(=O)NCC3CCCO3)[nH]c2=O)cc1OC", "note": "(centres undefined)", "Potency": "inconclusive: 89.1 µM [inhibitor, single point]"}
